Two substances from PMC12661985, “USP25 deubiquitinates cytosolic METTL3 to impede glioma proliferation via an m6A-independent pathway” (iScience, 2025) can be followed below.

Sequences of proteins named here, by UniProt entry; tags and fusion partners are left off.
UniProt Q86U44: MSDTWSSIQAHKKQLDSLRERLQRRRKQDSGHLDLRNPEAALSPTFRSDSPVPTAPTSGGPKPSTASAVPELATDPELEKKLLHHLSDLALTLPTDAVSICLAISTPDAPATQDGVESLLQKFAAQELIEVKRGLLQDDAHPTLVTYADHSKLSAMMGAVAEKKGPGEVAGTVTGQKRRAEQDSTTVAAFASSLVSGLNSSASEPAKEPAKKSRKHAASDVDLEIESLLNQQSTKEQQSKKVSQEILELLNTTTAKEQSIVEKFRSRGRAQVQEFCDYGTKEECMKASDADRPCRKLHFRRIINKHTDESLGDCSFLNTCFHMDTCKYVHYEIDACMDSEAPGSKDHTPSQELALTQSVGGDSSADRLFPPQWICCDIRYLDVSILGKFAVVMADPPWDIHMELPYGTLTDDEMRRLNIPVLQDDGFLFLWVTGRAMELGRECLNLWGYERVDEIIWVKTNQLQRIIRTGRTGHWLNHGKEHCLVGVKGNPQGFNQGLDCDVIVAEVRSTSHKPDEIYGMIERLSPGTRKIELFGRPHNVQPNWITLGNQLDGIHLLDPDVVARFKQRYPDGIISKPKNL
UniProt Q9UHP3: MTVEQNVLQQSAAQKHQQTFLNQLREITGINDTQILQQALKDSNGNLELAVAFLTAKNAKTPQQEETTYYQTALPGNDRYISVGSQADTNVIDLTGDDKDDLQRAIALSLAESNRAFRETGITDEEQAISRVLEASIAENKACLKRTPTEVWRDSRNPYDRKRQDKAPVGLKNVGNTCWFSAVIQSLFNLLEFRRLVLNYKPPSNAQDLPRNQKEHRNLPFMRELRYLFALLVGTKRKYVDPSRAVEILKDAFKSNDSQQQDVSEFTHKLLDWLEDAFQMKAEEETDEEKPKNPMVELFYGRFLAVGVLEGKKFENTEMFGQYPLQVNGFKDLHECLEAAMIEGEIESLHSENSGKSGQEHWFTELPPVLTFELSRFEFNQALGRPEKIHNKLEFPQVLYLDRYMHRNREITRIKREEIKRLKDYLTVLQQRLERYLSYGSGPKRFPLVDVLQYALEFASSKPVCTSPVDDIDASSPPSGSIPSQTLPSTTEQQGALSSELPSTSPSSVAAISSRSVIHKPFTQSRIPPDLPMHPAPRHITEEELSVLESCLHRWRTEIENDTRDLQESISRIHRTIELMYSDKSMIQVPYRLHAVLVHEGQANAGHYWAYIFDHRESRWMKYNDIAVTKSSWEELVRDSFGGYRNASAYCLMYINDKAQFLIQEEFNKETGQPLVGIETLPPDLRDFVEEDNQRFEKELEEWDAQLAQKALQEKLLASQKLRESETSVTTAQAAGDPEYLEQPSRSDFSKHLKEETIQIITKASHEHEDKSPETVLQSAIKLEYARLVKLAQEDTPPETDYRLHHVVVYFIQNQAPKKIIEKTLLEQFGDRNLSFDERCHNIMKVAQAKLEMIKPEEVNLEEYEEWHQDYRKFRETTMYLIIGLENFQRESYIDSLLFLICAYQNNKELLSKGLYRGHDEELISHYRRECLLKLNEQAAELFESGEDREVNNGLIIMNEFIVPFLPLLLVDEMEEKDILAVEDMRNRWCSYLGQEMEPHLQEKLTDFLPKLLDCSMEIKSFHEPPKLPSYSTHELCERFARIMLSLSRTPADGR

Results are given in words; binding and its absence hold for the method and conditions named. Binding seen in cells or lysates may run through a third protein. Some results given as binding are weak or reduced against the parent protein; the word gives no strength.

For assay [1], the target named is Myc-METTL3 (human) (UniProt Q86U44). In words: co-IP; HEK-293T cells co-transfected with Flag-USP25 and Myc-METTL3; IP with anti-Flag or anti-Myc affinity gel.
The target in assay [2] is METTL3 (endogenous) (human (endogenous in U87-MG and U251)) (UniProt Q86U44). As to the kind of experiment: co-IP; endogenous proteins in U87-MG and U251 cells; reciprocal IP with anti-METTL3 or anti-USP25 antibody.

Turning to “Flag-USP25 (from UniProt Q9UHP3 1-1055) (enzyme)”, the binding entry in assay [1] was “binds”.
Consider “USP25 (endogenous) (from UniProt Q9UHP3 1-1055) (enzyme)”, for which the binding entry in assay [2] is recorded as “binds”.
